# Primary screen of a compound library

Measurements from “University of Dundee, Small-Polar-MMV Screening Library” (2021), ChEMBL document CHEMBL3988442.

Mtb growth Cornell: 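Whole-cell assay for inhibitors of Mycobacterium tuberculosis growth, labelled Cornell in the record; the read-out is not stated. The concentration is filed as 10 mM, unlikely as a test dose, so the dose is not known. Higher means stronger inhibition (inferred from two other growth screens of the library). Of about 53,000 compounds tested this way, about 900 (1.7%) reached 50% or more in at least one test.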
Mtb heat-shock: 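Assay on Mycobacterium tuberculosis, filed only as a heat shock assay from Cornell; the read-out is not stated. The concentration is filed as 10 mM, unlikely as a test dose, so the dose is not known. Direction is inferred from retests: higher values go with stronger inhibition. About 69,000 compounds were tested under these conditions; 1.4% (about 930) showed 50% or more at least once.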

Values are the deposited “Percent Effect”, in %.
The record does not define 0% and 100%; most values in the screen are far below 50% and negative numbers occur (in some assays of this library far below -100).
Compounds were drawn at random from those tested, without regard to their results.
A dash means the value is not listed here; it may have been measured.

structure	Mtb growth Cornell	Mtb heat-shock
O=c1cc(CNCc2ccc3c(c2)OCO3)nc2ccccn12	20.25	-27.23
COc1cccc(C(=O)NS(=O)(=O)c2cncc(Br)c2)c1OC	-	-24.09
c1cncc(O[C@H]2COCCN(Cc3c[nH]c4ccccc34)C2)c1	-	58.82
CCS(=O)(=O)CC(=O)Nc1cccc2c1CN(CC(C)C)C2	-1.992	2.249
O=C(c1csc(-c2cnccn2)n1)N1CCCC1Cn1cccn1 (stereo not given)	-12.16	-5.496
Cn1nccc1C1CCN(Cc2cnn(-c3ccccc3)n2)CC1	-	-18.48
O=C(c1ccsc1)N1CC(C(=O)N2CCOCC2)C2(CCOCC2)C1 (stereo not given)	18.28	4.87
CC(C)N1CCCC(C(=O)N2CCN(c3cnn(C)c(=O)c3)CC2)C1 (stereo not given)	-0.1157	17.59
O=C(CS(=O)(=O)Cc1ccc(F)cc1)NCc1ccccc1F	7.012	9.348
CN(Cc1ccccc1Cl)C(=O)c1cc(CN2CCC(O)CC2)on1	-	-14.24
Cc1ccc(F)cc1C(=O)N1CCN(S(C)(=O)=O)[C@@H](C)C1	-23.42	-18.92
O=C(O)C(F)(F)F.O=C(O)C(F)(F)F.[H][C@]12C[C@H](CN(C)C)O[C@@]1([H])CN(Cc1ccc(OC)cc1)C2	19.93	-20.17
CNc1cncc(C2CCCN2C(=O)CCn2ccnc2)n1 (stereo not given)	-11.08	-13.9
Cc1oncc1C(=O)N1CCC(O)(CN2CCOCC2)C(C)(C)C1 (stereo not given)	5.678	7.873
CC(=O)NC(Cc1c[nH]c2cc(F)ccc12)C(=O)Nc1cnn(C)c1 (stereo not given)	16.97	-34.24
[H][C@]12CNC[C@@]1(C(=O)NC1CCN(c3ncccc3C#N)CC1)CN(C)C2	-68.94	-4.64
O=C(O)c1ccc(CNC(=O)C2CCN(C(=O)C3CCC3)CC2)s1	15.26	-0.3559
Cc1nc(CN2CCN(C(=O)c3sccc3C)CC2)cs1	-	3.407
COc1ncccc1C(Cc1ccsc1)NC(=O)Cn1cccnc1=O (stereo not given)	-34	-21.47
c1ccc(NCc2cn3c(n2)CN(Cc2nccs2)CC3)nc1	21.1	-18.66
CCc1nc2ccccc2c(=O)n1CC1(O)CCNCC1.Cl	10.86	-1.704
CC(C)N1CCC(Cn2cc(C(N)=O)cn2)CC1	-29.5	-13.95
COC(C)(C)C(=O)N[C@H]1CN(c2ncccc2C(N)=O)C[C@@H]1C(C)C	7.303	-4.594
COc1cc(N2CCCC(CO)(Cc3ccccc3F)C2)ncn1 (stereo not given)	-	5.981
COc1ccccc1CNC(Cc1cccs1)c1nc(C)c(C)s1.Cl (stereo not given)	-6.027	6.532
Cc1ccc(CN2CCCC3(COCCN(Cc4c[nH]nn4)C3)C2)s1.O=C(O)C(F)(F)F.O=C(O)C(F)(F)F (stereo not given)	-26.11	-30.56
Cc1n[nH]c(C)c1CCC(=O)N1CCC(O)(CN2CCN(C)CC2)C1 (stereo not given)	15.75	2.39
CC(C(=O)NCc1ccnc(N2CCN(C)CC2)c1)S(C)(=O)=O (stereo not given)	-	-59
CCc1n[nH]c(C2CN(Cc3nnc(C4CC4)n3C)CCO2)n1 (stereo not given)	-	-21.91
Cc1nnc(C2CCN(c3ncccn3)CC2)o1	7.546	6.997
O=C(O)c1nnn(-c2ccc(C(F)(F)F)cc2)c1-c1ccncc1	35.94	-5.214
Cc1cnn(CC2CCCCN2CCCS(N)(=O)=O)c1 (stereo not given)	-	-8.155
Cc1ccc(N2CCCN(C(=O)C(C)OCC3CC3)CC2)nn1 (stereo not given)	-	-3.878
CCn1cc(NC(=O)NCC(c2ccc(OC)cc2)N(C)C)cn1 (stereo not given)	-	12.63
[H][C@@]12CC[C@H](Oc3cccc(F)c3)[C@]1([H])CN(C(=O)c1ncccc1C)C2	6.741	-2.424
CC(C)c1cc(NC(=O)CNC2CCCN(c3cccnn3)C2)on1 (stereo not given)	20.81	8.437
O=C(CCCOc1ccc(F)cc1F)N1CCCC(n2cccn2)C1 (stereo not given)	12.39	-7.076
COc1ccc2nnc(CCC(=O)Nc3nc4c(s3)CCCCC4)n2n1	8.642	8.775
CC(=O)N[C@@H]1CN(CC(=O)NCc2ccccc2C)C[C@H]1C(C)C	32.1	-0.7973
COc1ccc2cc(C(=O)N3CCCC3Cn3cc(C)cn3)[nH]c2c1 (stereo not given)	-	11.77
O=C(N1CCC(OCc2ccccn2)CC1)C1(c2ccc(F)cc2)CC1	20.39	-11.66
Cc1csc2c(N3CCNC(C(=O)Nc4ccc(F)cc4)C3)ncnc12 (stereo not given)	17.73	27.39
CCn1cc2c(n1)C(COCC1CC1)CN(c1ccc(C)nn1)C2 (stereo not given)	-41.74	24.78
CC(C)(C)OC(=O)N1CCN(c2cccnc2)CC1C(=O)O (stereo not given)	15.92	20.6
Cc1cccc(C2CCCN(C(=O)c3ccncc3)C2)n1 (stereo not given)	1.605	-20.04
CN(CCCNC(=O)c1ccccc1OCC(N)=O)CC(F)(F)F	-12.46	9.236
CC(C)c1nc2n(n1)CC(NCc1nnnn1C1CC1)CC2 (stereo not given)	-5.558	0
CCCOc1ccccc1C(N)CC(C)C (stereo not given)	-	-2.973
Cc1nn(C)cc1-c1cc(C(F)(F)F)nc(NC2CCN(C)CC2)n1	11.83	8.88
Fc1cnccc1CN1CCC2(CCNCC2)C1	8.117	-15.79
COCC1(CNC(=O)Nc2cc(F)ccc2OC)CCCC1	-11.94	-8.886
Cc1ccc(-c2nn(C)c(C(=O)O)c2Br)cc1	-6.657	-5.515
[H][C@]12CC[C@]([H])(C1)[C@H](NC(=O)C1(Oc3ccc(Cl)cc3)CCNCC1)C2	30.38	30.73
COc1ccc(OC)c(-c2cc(C(=O)NCC3(CO)CC3)n(C)n2)c1	18.13	-0.2415
O=C(O)C(F)(F)F.O=C(O)C(F)(F)F.O=C(O)C(F)(F)F.[H][C@]12C[C@@H](CN3CCCC3)N(C(C)C)[C@@]1([H])CCN(Cc1ccoc1)C2	40.92	-0.9762
Cc1cccc(CN2CCN(c3nc(CO)cs3)CC2)c1	16.47	-33.4
CCc1cc(C(=O)N2CCC(c3cc4ncccc4cn3)CC2)no1	-43.86	-26.35

Some entries from above, unchanged:

structure,Mtb growth Cornell,Mtb heat-shock
Cc1ccc(F)cc1C(=O)N1CCN(S(C)(=O)=O)[C@@H](C)C1,-23.42,-18.92
COc1ccccc1CNC(Cc1cccs1)c1nc(C)c(C)s1.Cl (stereo not given),-6.027,6.532
CN(Cc1ccccc1Cl)C(=O)c1cc(CN2CCC(O)CC2)on1,-,-14.24